Results published in patent US4843158A, “[2,2,1]Cryptand compounds that selectively bind sodium” (priority 1985, dated 1989).

Experiments:
Format in all cases: binding
[1] = Cation induced 19F NMR chemical shift, sodium; conditions: 37° C.
Description: (§1) NMR titrations: Nmr spectra were recorded on Bruker WH 200 or Am 400 spectrometers at 188 or 376 MHz respectively at chelator concentrations between 5 and 10 mM in the same buffer as for fluorescence titrations but containing 20% D2 O at 37° C. The spectra were obtained with an acquisition time of 1.0 sec. and a 90° pulse and were processed with resolution enhancement (-0.5 of the observed line width) and appropriate gaussian sensitivity enhancement. The proportion of M^n+ -chelator complex was calculated from the integrals of the resolved free and bound chelator ^19 F resonances, or from the chemical shift of complexes in fast exchange. The apparent affinities were determined graphically as for the fluorescence data, but using a two step iteration from the affinity derived from the fluorescence data when the dissociation constant was close to the chelator concentration in the nmr titrations.

[2] = Cation induced 19F NMR chemical shift, potassium; conditions: 37° C.
Description: as §1

[3] = Cation induced 19F NMR chemical shift, magnesium; conditions: 37° C.
[4] = Cation induced 19F NMR chemical shift, calcium; conditions: 37° C.
[5] = Cation induced 19F NMR chemical shift, proton; conditions: 37° C., at pH 7.0

| Compound | Cation Induced Chemical Shift, Na+ [1] | Cation Induced Chemical Shift, K+ [2] | Cation Induced Chemical Shift, Mg2+ [3] | Cation Induced Chemical Shift, Ca2+ [4] | Cation Induced Chemical Shift, H+ [5] |
| --- | --- | --- | --- | --- | --- |
| O=C(O)CN(CC(=O)O)c1ccc2c(c1)OCCN1CCOCCN(CCO2)c2ccc(F)cc2OCCOc2cc(F)ccc21 [Compound 7a] | 3.09 ppm downfield | 1.09 ppm downfield | 0 ppm downfield | 0 ppm downfield | – |
| O=C(O)CN(CC(=O)O)c1cccc(N2CCN3CCOc4ccc(N(CC(=O)O)CC(=O)O)cc4OCCN(CC2)c2ccc(F)cc2OCCOc2cc(F)ccc23)c1 [Compound 7d] | 1.96 ppm downfield | 0 ppm downfield | 0 ppm downfield | 0 ppm downfield | -0.5 ppm per unit of pH |
| CC(=O)c1cc2c(cc1N(CC(=O)O)CC(=O)O)OCCN1CCN(c3cccc(N(CC(=O)O)CC(=O)O)c3)CCN(CCO2)c2ccc(F)cc2OCCOc2cc(F)ccc21 [Compound 8d] | 2.00 ppm downfield | 0 ppm downfield | 0 ppm downfield | 0 ppm downfield | -0.25 ppm per unit of pH |
